Laboratory results published in article PMC10163288.
The other results are listed elsewhere or left out.

B1: il10ra_site1_sap_12_mot_8756ee2cf497b5429c717dfc0c0bcfd6_0001_000000186_0001_1_13_H_._HHH_b2_07923_0001_0000200016_0000002_0_0001_af2pred_0001 (protein)
chain: SSSSDVEEELEELLEEAKRIEDLHRASYVLSEAFALANRRRDPELEEEVRRAAKEIIEAGSSSSS
B2: il10ra_site1_sap_23_mot_HHH_b1_00982_af2_000000222_0001_1_20_H_._14d82ceff8a195a39001b8830cdb77ae_0001_1_0001_0000300007_0000001_0_0001 (protein)
chain: SSSSSDAAEEVYELSREAMELARKGNPEEAEKVLEEAEKLAEEANNRILQVVVRFALRALSSSSS
B3: il10ra_site1_sap_16_mot_HHH_b1_05357_000000034_0001_23_39_H_._HHH_eva_0376_0001_0000100015_0000001_0_0001 (protein)
chain: SLEEELEELLRELGVPPEWIRLLQLAFRVQRRQGTPPEQVLEALLYFLEAAGDPAREAVRELLER
B4: il10ra_site1_normal_mot_HHH_b1_06914_000000280_0001_1_18_H_._HHH_b1_02183_0001_0000200013_0000001_0 (protein)
chain: SSSSSDEAEEIYELLREALELMANGNPEEAEEVLEEARKLAEELNSFALLFAVRLLLRQLSSSSS
B5: il10ra_site1_sap_18_mot_HHH_b2_02949_000000044_0001_44_58_H_._f40d6d0cbf34e70120e1cbb54c31f594_0001_0001_0000300008_0000002_0_0001_af2pred_0001 (protein)
chain: SSSSSTIEEDVKSALRAAELLLKRGDPEKAEEAARIAELLARQANNEELLKKIEELLEELSSSSS
B6: il10ra_site1_sap_15_mot_HHH_b2_00943_af2_000000149_0001_1_17_H_._HHH_b2_00970_0001_0000100006_0000002_0_0001 (protein)
chain: SSSSSSDRTREIYELIREAFEIEDPEEAREVLERALELAEELGDFALRHAVEIALRALSSSSSSS
B7: il10ra_site1_normal_mot_39ab2cb694c8b9c1dc7e65c0d672c93e_0001_000000036_0001_53_65_H_._HHH_b1_05574_0001_0000300023_0000001_0 (protein)
chain: SSSSSEEERIEELIEEAKELLERGNPEEALELVLEALRLAYQNRNAELLQELWRLAKEIASSSSS
B8: il10ra_site1_sap_20_mot_HHH_b1_08133_000000195_0001_1_19_H_._HHH_b2_01759_af2_0001_0000200016_0000001_1_0001 (protein)
chain: SSSSSEEEELTRLLHEIMELYKKGDPRAEELVREAQELAEELGNQMAKWILELMLRALKRQSSSS
B9: il10ra_site1_normal_mot_HHH_b2_08186_000000021_0001_43_56_H_._HHH_b2_01697_0001_0000100002_0000002_0 (protein)
chain: SSSSSSEEEEVRREVEELLEEAKRVDREEAARLLMEAIRLAFEVSDPELLKLIWEVLRELSSSSS
B10: il10ra_site1_normal_mot_HHH_b1_01975_000000257_0001_1_17_H_._HHH_b1_01232_af2_0001_0000200004_0000001_1 (protein)
chain: SSSSDEHERIVRLMLRVARLFIEGNPEEAEKLLEEAEELAKELNDPELQRAIELLKRALKSSSSS
B11: il10ra_site1_normal_mot_7f9b3cf633cfd27bca007b62ade1be3b_0001_1_000000138_0001_17_32_H_._HHH_b2_03084_0001_0000200009_0000001_0 (protein)
chain: SSSSDLEEQIRAAEEFIRALLESGDPEAARRLLRALEDVVKNFNDEEAQRVVEELEEEINSSSSS
B12: il10ra_site1_sap_7_mot_HHH_b2_01447_af2_000000258_0001_1_20_H_._HHH_b1_00310_0001_0000100012_0000001_0_0001 (protein)
chain: SSSSSSDEEELLEAALRLLKQAPDPEIRKFMAWSIEFLAREVGDEEVEEELERLEEELSSSSSSS
B13: il10ra_site1_normal_mot_HHH_b1_00992_000000182_0001_23_40_H_._HHH_b1_07180_0001_0000300021_0000001_0_af2pred_0001 (protein)
chain: SSSSDDEERLELALKFIEWLIKQGDEEAAKYVIKAAREIAKKLGNEEILERLEELLERLNSSSSS
B14: il10ra_site1_sap_24_mot_HHH_b1_06174_af2_000000107_0001_40_57_H_._HHH_b1_02318_0001_0000200024_0000001_0_0001_af2pred_0001 (protein)
chain: SSSSSSDAEETVRIALRVAKLLTDPEDVRRALELAEKLARQANDPELEELVEEVEEELSSSSSSS
B15: il10ra_site1_normal_mot_HHH_b1_05254_000000006_0001_1_19_H_._HHH_b2_03913_0001_0000200009_0000001_0 (protein)
chain: SSSSDEAYELVRKAIEEALKLYRNGNPEEARELIEQVIEELRELGNVAAVWAAEHVLRVLRSSSS
B16: il10ra_site1_sap_17_mot_HHH_b1_02004_000000220_0001_1_19_H_._HHH_b2_05056_af2_0001_0000400040_0000002_0_0001 (protein)
chain: SSSSDETQEVFELFERAIELHSEGDHEEAERLLEEAERLAEELGNRLMRFQIEFAQRLLDSSSSS
B17: il10ra_site1_sap_12_mot_HHH_b2_00943_af2_000000149_0001_1_17_H_._HHH_b2_07075_0001_0000600045_0000001_0_0001 (protein)
chain: SSSSEEVIEKASRVAQEAIRLAIQRSDKETFEALWRLFEEIIREGDPELLEELERLLEELRSSSS
B18: il10ra_site1_normal_mot_HHH_b1_02997_000000220_0001_39_52_H_._HHH_b2_02307_0001_0000100006_0000001_1_af2pred_0001 (protein)
chain: SSSSSEVLRLIREAIELLNDGNPEEAREVAEEARRLAEEANNYVFRIAIELIIRIIEREGSSSSS
B19: il10ra_site1_sap_18_mot_HHH_b1_01821_000000158_0001_23_39_H_._HHH_b2_02007_0001_0000400032_0000001_0_0001 (protein)
chain: SSSSSDEELVIELIMRLLELFANQDREELEKLTEEAEEVAEELNDPYLRQIVRFAKAFLNSSSSS
B20: il10ra_site1_sap_14_mot_HHH_b1_06348_000000162_0001_1_15_H_._HHH_b1_08757_0001_0000400019_0000001_0_0001_af2pred_0001 (protein)
chain: SEEERIEIAVEHVAELANAPSVEVEVSNGEVTVTVEGDDEAARYVRLFLEALARILNIPLEIHVE
B21: il10ra_site1_normal_mot_HHH_b1_08356_000000013_0001_43_57_H_._HHH_b2_03796_0001_0000400048_0000002_0_af2pred_dldesign_0_af2pred (protein)
chain: SSSSSSSKIDELRAAIEAALAAGDTGRATQLLIELTKLAAEAEDQDTLAEARALNGRLASSSSSS
B22: il10ra_site1_normal_mot_HHH_b2_00479_000000091_0001_1_12_H_._HHH_b2_03517_0001_0000100001_0000002_0 (protein)
chain: SSSSSDADEVYELLREILELLANNDEEEAKELIEEVRKLVEELGNFALEFAVRVLERRVNSSSSS
B23: il10ra_site1_normal_mot_HHH_b2_00230_000000227_0001_1_19_H_._HHH_b2_06456_0001_0000100007_0000001_0 (protein)
chain: SSSDEAYELVRRAIEEVIELFRKGNPEEAERLLEEVEELLKELNNDAALWSIEHLLRLLRNSSSS
B24: il10ra_site1_normal_mot_HHH_b2_08186_000000021_0001_43_56_H_._HHH_b1_04312_af2_0001_0000100006_0000002_0 (protein)
chain: SSSSDREERIKELQEEIEELIERNDRERAIELLLEALQLAYEAGNAELLRELWELLRLVESSSSS
B25: il10ra_site1_normal_mot_HHH_b2_00033_000000036_0001_41_54_H_._HHH_b1_02211_0001_0000400014_0000001_0 (protein)
chain: SSSSSSSSVRRLAAEAVRFAMELGDDETFQRLWELYKRYIEEGDPRYEEEIEELLEELSSSSSSS
B26: il10ra_site1_normal_mot_HHH_b1_05357_000000034_0001_23_39_H_._HHH_b2_05126_af2_0001_0000200002_0000002_0_af2pred_0001 (protein)
chain: SSSSSDEEYREEVEELLEKAEQIEDPHEVAYLLIRAFAIAFRLGDPELEEEVKRVAHELLSSSSS
B27: il10ra_site1_sap_12_mot_6805e7cfcec1a9f49da1e1cd80eb4878_0001_af2_000000116_0001_1_14_H_._a4d94f43bc0d423f3d0edd362bd39fea_0001_0001_0000200008_0000001_0_0001_a … (protein)
chain: SSSSSDDEVLKLAAKALALAQRLGDEERAERLLRLIVRLYEEGDPEVEEELRKLAEEVLESSSSS
B28: il10ra_site1_normal_mot_HHH_b1_03094_000000294_0001_1_20_H_._HHH_b1_06894_0001_0000500019_0000001_1 (protein)
chain: SSSSSDLKERVLELSRQALRLALRGNPEEAREVLEEAEELAEELGNPRLLRVLRQLLQALSSSSS
B29: il10ra_site1_sap_15_mot_HHH_b1_05357_000000034_0001_23_39_H_._HHH_b2_00617_0001_0000100006_0000001_0_0001 (protein)
chain: SSSSDEELQEVLELLRRAIRLALRGNPEEAEKVLEEARRLAEEINDERIRKMIESLEKALRSSSS
B30: il10ra_site1_sap_28_mot_HHH_b1_01555_000000194_0001_1_18_H_._772cb577d49f115e122c84b1f84da933_0001_0001_0000200002_0000001_0_0001 (protein)
chain: SSSSSEVERYVKLALRFARRLFEDGDPEAARFLVEVAEEMAERNNNEELHEEARRLLEELESSSS
B31: il10ra_site1_sap_18_mot_HHH_b2_02927_000000097_0001_42_56_H_._HHH_b2_03336_0001_0000200019_0000002_0_0001 (protein)
chain: SSSSDEEYERAKELIQEIVELLREGNPEEAEKVLEELRKLAEERNSPVLEMVVRFLEERINSSSS
B32: il10ra_site1_sap_13_mot_HHH_b2_07144_000000289_0001_1_18_H_._HHH_b1_02371_af2_0001_0000100002_0000001_0_0001 (protein)
chain: SSSSSDEFNELILKIEELLYNGNPEEARKLVEEMEELVEELGDPELERYLEILKHFVEAHSSSSS
B33: il10ra_site1_normal_mot_HHH_b2_02537_000000065_0001_1_20_H_._HHH_b2_00157_af2_0001_0000200010_0000001_0 (protein)
chain: SSSSSEESEELFEEAEEKLRRLLEEGNVDEAFELLRRVIERLVELGDPEAARRLSRLFLEGSSSS
B34: il10ra_site1_normal_mot_HHH_b1_05254_000000006_0001_1_19_H_._HHH_b2_01890_af2_0001_0000300021_0000001_0 (protein)
chain: SSSSSDEEEVEERVKELLEELKHVDPDEFYELLREAIELASELNDPELLREIIKVLQEWFSSSSS
B35: il10ra_site1_sap_24_mot_e1dd4851c59bc1cdde016f988f6856bd_0001_1_000000200_0001_16_31_H_._HHH_b2_04498_0002_0000100007_0000001_0_0001 (protein)
chain: PEVKKEAEEAEELLHEAEELAEDPKMREAIRFHLDILKQAKEQDNEEALRAAIHAARALWELVLS
B36: il10ra_site1_sap_11_mot_HHH_b1_00103_000000293_0001_1_15_H_._HHH_b2_01196_af2_0001_0000500018_0000001_0_0001_af2pred_dldesign_0_af2pred (protein)
chain: SSSSSPLEEFERLKKELEELLKAGKLDEAREVLRELSRLALELNDPEKIAEVLELAKELESSSSS
B37: il10ra_site1_sap_22_mot_HHH_b1_00814_af2_000000078_0001_43_57_H_._HHH_b1_02037_0001_0000100005_0000002_1_0001 (protein)
chain: SSSSSSDIIRLAQELVRLALRKGDEEALQAVWEAVVAWARGELSEEEVEELLEKAEELLSSSSSS

The binders below were run against il10ra, Q13651 (assay: yeast display titration).

Apparent Kd, inactive:
B1 no binding seen
B2 no binding seen
B3 no binding seen
B4 no binding seen
B5 no binding seen
B6 no binding seen
B7 no binding seen
B8 no binding seen
B9 no binding seen
B10 no binding seen
B11 no binding seen
B12 no binding seen
B13 no binding seen
B14 no binding seen
B15 no binding seen
B16 no binding seen
B17 no binding seen
B18 no binding seen
B19 no binding seen
B20 no binding seen
B21 no binding seen
B22 no binding seen
B23 no binding seen
B24 no binding seen
B25 no binding seen
B26 no binding seen
B27 no binding seen
B28 no binding seen
B29 no binding seen
B30 no binding seen
B31 > 7.52 µM
B32 no binding seen
B33 no binding seen
B34 no binding seen
B35 no binding seen
B36 no binding seen
B37 no binding seen

Two neighbouring records already listed:
Apparent Kd, inactive:
B32 no binding seen
B33 no binding seen
